Patent US20110301335A1 (published 2011)
No constants are given. Whether binding was seen depends on the method and setting. Some binding calls cover weakened binding; strength is not graded here.

Legend:
[1] = target: T1, mouse TNFR1 (R&D systems cat no. 425-R1-050/CF) (mouse) (UniProt P25118); test: BIAcore, biotinylated mouse TNFR1 on SA chip, alone and after DOM1m-21-23 (concentration not given)
T1 sequence (biotinylated with EZ-Link NHS-LC-LC-biotin, looked up): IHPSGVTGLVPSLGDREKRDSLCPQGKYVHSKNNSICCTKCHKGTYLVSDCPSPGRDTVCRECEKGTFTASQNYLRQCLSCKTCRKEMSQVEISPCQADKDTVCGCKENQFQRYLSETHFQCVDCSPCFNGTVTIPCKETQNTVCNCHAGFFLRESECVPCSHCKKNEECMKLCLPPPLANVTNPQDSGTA

[2] = target: T1, mouse TNFR1 (R&D systems cat no. 425-R1-050/CF) (mouse); test: BIAcore sequential injection on biotinylated mouse TNFR1; after DOM1m-21-23
[3] = target: T1, mouse TNFR1 (R&D systems cat no. 425-R1-050/CF) (mouse); test: BIAcore, biotinylated mouse TNFR1 on SA chip, dAb at 1 µM
[4] = target: T1, mouse TNFR1 (R&D systems cat no. 425-R1-050/CF) (mouse); test: BIAcore

Measured: binding

B1: DOM1h-574-16 (other)
VH: EVQLLESGGGLVQPGGSLRLSCAASGFTFVKYSMGWVRQAPGKGPEWVSQISNTGDRTYYADSVKGRFTISRDNSKNTLYLQMNSLRAEDTAVYYCAIYTGRWEPFDYWGQGTLVTVSS
binds: all assays above
